According to patent US20170266269A1, “METHODS OF IDENTIFYING ANTIGENS FOR VACCINES” (UNIVERSITY OF WASHINGTON THROUGH ITS CENTER FOR …, priority 2014, published 2017):
Some entries share one result that the patent states for a list of compounds.

The chains behind the UniProt entries cited, without tags or fusion partners. Where a name states a change or a piece, a line headed by the entry shows the natural chain unless it says otherwise.
UniProt P17813: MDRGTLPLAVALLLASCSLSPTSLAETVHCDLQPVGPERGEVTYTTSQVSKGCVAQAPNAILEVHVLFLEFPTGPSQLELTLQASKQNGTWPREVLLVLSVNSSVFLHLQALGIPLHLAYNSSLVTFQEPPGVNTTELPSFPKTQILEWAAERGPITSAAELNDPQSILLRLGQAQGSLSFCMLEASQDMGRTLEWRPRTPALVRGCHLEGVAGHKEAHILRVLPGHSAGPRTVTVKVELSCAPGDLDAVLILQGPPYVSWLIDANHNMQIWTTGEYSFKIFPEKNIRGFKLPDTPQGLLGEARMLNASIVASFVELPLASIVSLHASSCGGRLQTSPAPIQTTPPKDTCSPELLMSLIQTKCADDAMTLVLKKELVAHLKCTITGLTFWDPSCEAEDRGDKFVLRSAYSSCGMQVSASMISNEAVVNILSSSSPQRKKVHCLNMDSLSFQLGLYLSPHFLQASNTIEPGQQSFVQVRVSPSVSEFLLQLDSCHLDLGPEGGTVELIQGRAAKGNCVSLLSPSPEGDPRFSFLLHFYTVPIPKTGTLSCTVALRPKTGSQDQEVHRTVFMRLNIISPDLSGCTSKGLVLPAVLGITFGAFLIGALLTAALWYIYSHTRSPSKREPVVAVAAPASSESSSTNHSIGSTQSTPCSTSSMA

The substances below were run on human peripheral blood mononuclear cells (PBMC) (assay: IFNγ ELISPOT of human PBMC with epitope peptides).
Format: cell-based
Excerpt: A plurality of immunological assays may be used with the methods or processes described herein to test at least one peptides of putative epitopes or nucleic acids encoding peptides of putative epitopes to determine if the peptide of the putative epitope elicits an immune response, often the sub-type of the immune response may be determined, often the immunologic assay may be an ELISPOT assay, an ELISA assay, a multiplex assay or the like. For example, a suitable immunologic assay may include performing an ELISPOT assay using cells derived from donors. The ELISPOT assay may include isolating peripheral blood mononuclear cells (PBMC) from at least 10, preferably at least 40, subjects, often the subjects are human donors. The amount of at least one cytokine production in cells following administration of the peptides of putative epitopes may be determined by the ELISPOT assay. The at least one cytokine may be IFNγ and/or IL-10 such that data indicating cytokine production may represent a positive or a negative response of cells to the peptide sequence of the putative epitope. In some cases, positive responses may have a statistically significant difference (p<0.05) between a mean number of spots from five replicates in the experimental wells and the mean number from no antigen control wells. In other cases, negative responses may not have a statistically significant difference (p<0.05) between a mean number of spots from five replicates in the experimental wells and the mean number from no antigen control wells.
This example describes the identification of unique and discrete amino acid sequences of antigenic epitopes from breast cancer stem cell and epithelial mesenchymal transformation peptides CD105 and HIF-1a, both of which are promiscuous MHC class II binders and unexpectedly stimulate high (magnitude and incidence) interferon gamma (IFNγ) and low or no interleukin (IL)-10 responses from human peripheral blood mononuclear cells (PBMC). CD105 and HIF1α have been juxtaposed to allow construction of extended epitope sequences for inclusion in either a peptide or DNA plasmid-based multi-antigen polyepitope CD4+ T-cell vaccine targeting breast cancer stem cell and epithelial mesenchymal transformation antigens in cancer patients.
[…] peptides, predicted to bind promiscuously to human MHCII, were selected using web-based algorithms according to the methods described herein. Peripheral blood mononuclear cells (PBMC) from 20 female breast cancer patients were cryopreserved and evaluated by ELISPOT for antigen specific IFNγ or IL-10 secretion, according to our published methods. […] Data is reported as the mean number of spots for each experimental antigen minus the mean number of spots detected in no antigen control wells (corrected spots per well: CSPW). […]
For “CD105 p626-642: peptide at the C-terminus of CD105 (VVAVAAPASSESSSTNH; UniProt P17813 626-642, looked up, fragment)”, the IFNγ response incidence was at least 20%.
“GHKEAHILRVLPGHSAGPRTVTV [CD105 p214-236]” showed an IFNγ response incidence of at least 20%.
LHLAYNSSLVTFQEP [CD105 p116-130] showed an IFNγ response incidence of at least 20%.
With VLLVLSVNSSVFLHLQALGI [CD105 p 96-114] the IFNγ response incidence was at least 20%.
